These results are taken from PMC7242080.

No constants are given. Whether binding was seen depends on the method and setting. Binding seen in cells or lysates may run through a third protein. Some binding calls cover weakened binding; strength is not graded here. Sequences can lack the tags named with a protein.

The experiment has as its target T1, RPS4-HA (Arabidopsis thaliana (Col-0)) (UniProt Q9XGM3).
T1 sequence: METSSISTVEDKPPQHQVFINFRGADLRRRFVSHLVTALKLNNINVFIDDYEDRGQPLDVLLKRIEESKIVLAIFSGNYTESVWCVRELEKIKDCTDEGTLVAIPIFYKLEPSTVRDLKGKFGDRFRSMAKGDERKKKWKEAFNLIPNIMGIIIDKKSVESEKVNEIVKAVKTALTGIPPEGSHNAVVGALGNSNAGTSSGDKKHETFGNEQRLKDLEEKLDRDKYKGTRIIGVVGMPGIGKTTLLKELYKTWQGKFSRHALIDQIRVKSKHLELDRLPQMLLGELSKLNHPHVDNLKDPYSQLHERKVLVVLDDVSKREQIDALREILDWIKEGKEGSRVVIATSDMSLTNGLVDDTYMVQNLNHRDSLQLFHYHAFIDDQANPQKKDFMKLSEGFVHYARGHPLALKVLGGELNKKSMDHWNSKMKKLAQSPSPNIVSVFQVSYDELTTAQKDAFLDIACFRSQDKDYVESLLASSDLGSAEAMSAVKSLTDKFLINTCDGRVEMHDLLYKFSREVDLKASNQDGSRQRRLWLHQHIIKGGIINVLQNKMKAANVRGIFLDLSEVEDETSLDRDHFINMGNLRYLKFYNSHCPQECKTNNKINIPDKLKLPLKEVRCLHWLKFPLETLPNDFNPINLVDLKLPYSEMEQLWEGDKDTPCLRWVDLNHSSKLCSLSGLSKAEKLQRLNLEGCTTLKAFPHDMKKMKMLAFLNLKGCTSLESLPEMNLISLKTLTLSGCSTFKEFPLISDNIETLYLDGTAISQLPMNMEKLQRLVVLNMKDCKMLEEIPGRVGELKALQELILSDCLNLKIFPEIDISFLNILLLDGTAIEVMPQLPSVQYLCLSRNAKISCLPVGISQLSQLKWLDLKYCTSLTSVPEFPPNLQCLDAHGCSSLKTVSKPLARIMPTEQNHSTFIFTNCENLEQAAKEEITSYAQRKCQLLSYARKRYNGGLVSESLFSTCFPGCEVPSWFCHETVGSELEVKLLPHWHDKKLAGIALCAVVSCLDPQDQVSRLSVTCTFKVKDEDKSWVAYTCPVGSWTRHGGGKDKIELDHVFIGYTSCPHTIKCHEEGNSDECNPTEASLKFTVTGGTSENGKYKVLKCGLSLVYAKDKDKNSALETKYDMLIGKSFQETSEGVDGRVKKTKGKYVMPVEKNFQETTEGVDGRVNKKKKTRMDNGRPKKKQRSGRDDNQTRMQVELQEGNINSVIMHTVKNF
In words: co-IP; RPS4-HA immunoprecipitated with anti-HA-conjugated beads from crude extracts of SETI_WT and SETI_E187A seedlings (7 DAG) treated with 0.1% DMSO or 50 uM estradiol for 3 h; IP buffer 10% glycerol, 50 mM Tris-HCl pH 6.8, 50 mM KCl, 1 mM EDTA, 5 mM MgCl2, 1% NP-40, 10 mM DTT, 1 mM dATP; RRS1-R-HF detected by anti-Flag immunoblot.

B1: RRS1-R-HF (protein, UniProt C4B7M5 1-1373)
chain: MTNCEKDEEFVCISCVEEVRYSFVSHLSEALRRKGINNVVVGVDSDDLLFKESQAKIEKAGVSVMVLPGNCDPSDVWLDKFAKVLECQRNNKDQAVVPVLYGDSLLRDQWLSELDFKGLSRIHQSRKECSDSILVEEIVRDVYETHFYVGRIGIYSKLLEIENMVNKQPIGIRCVGIWGMPGIGKTTLAKAVFDQMSSAFDASCFIEDYDKSIHEKGLYCLLEEQLLPGNDATIMKLSSLRDRLNSKRVLVVLDDVRNALVGESFLEGFDWLGPGSLIIITSRDKQVFCLCGINQIYEVQGLNEKEARQLFLLSASIKEDMGEQNLQELSVRVINYANGNPLAINVYGRELKGKKKLSEMETAFLKLKRRPPFKIVDAFKSTYDTLSDNEKNIFLDIACFFQGENVNYVIQLLEGCGFFPHVEIDVLVDKCLVTISENRVWLHKLTQDIGREIINGETVQIERRRRLWEPWSIKYLLEYNEHKANGEPKTTFKRAQGSEEIEGLFLDTSNLRFDLQPSAFKNMLNLRLLKIYCSNPEVHPVINFPTGSLHSLPNELRLLHWENYPLKSLPQNFDPRHLVEINMPYSQLQKLWGGTKNLEMLRTIRLCHSHHLVDIDDLLKAENLEVIDLQGCTRLQNFPAAGRLLRLRDVNLSGCIKIKSVLEIPPNIEKLHLQGTGILALPVSTVKPNHRELVNFLTEIPGLSEASKLERLTSLLESNSSCQDLGKLICLELKDCSCLQSLPNMANLDLNVLDLSGCSSLNSIQGFPRFLKQLYLGGTAIREVPQLPQSLEILNAHGSCLRSLPNMANLEFLKVLDLSGCSELETIQGFPRNLKELYFAGTTLREVPQLPLSLEVLNAHGSDSEKLPMHYKFNNFFDLSQQVVNDFFLKTLTYVKHIPRGYTQELINKAPTFSFSAPSHTNQNATFDLQPGSSVMTRLNHSWRNTLVGFGMLVEVAFPEDYCDATDFGISCVCRWSNKEGRSCRIERNFHCWAPGKVVPKVRKDHTFVFSDVNMRPSTGEGNDPDIWAGLVVFEFFPINQQTKCLNDRFTVTRCGVRVINVATGNTSLENISLVLSLDPVEVSGYEVLRVSYDDLQEMDKVLFLYIASLFNDEDVDFVAPLIAGIDLDVSSGLKVLADVSLISVSSNGEIVMHSLQRQMGKEILHGQSMLLSDCESSMTENLSDVPKKEKKHRESKVKKVVSIPAIDEGDLWTWRKYGQKDILGSRFPRGYYRCAYKFTHGCKATKQVQRSETDSNMLAITYLSEHNHPRPTKRKALADSTRSTSSSICSAITTSASSRVFQNKDEPNKPHLPSSSTPPGNAAVLFKMTDMEEFQDNMEVDNDVVDTRTLALFPEFQHQPEEEYPWSTFFDY
For B1, the binding entry is “binds”.
